Measurements from article PMC10206070.
These are yes or no findings as the source states them, for the method shown. Binding seen in cells or lysates may run through a third protein. Some binding calls cover weakened binding; strength is not graded here.

Target: T1, Adenosine Deaminase Acting on RNA 1 (ADAR1) (human (endogenous in MDA-MB-231)) (UniProt P55265)
T1 sequence: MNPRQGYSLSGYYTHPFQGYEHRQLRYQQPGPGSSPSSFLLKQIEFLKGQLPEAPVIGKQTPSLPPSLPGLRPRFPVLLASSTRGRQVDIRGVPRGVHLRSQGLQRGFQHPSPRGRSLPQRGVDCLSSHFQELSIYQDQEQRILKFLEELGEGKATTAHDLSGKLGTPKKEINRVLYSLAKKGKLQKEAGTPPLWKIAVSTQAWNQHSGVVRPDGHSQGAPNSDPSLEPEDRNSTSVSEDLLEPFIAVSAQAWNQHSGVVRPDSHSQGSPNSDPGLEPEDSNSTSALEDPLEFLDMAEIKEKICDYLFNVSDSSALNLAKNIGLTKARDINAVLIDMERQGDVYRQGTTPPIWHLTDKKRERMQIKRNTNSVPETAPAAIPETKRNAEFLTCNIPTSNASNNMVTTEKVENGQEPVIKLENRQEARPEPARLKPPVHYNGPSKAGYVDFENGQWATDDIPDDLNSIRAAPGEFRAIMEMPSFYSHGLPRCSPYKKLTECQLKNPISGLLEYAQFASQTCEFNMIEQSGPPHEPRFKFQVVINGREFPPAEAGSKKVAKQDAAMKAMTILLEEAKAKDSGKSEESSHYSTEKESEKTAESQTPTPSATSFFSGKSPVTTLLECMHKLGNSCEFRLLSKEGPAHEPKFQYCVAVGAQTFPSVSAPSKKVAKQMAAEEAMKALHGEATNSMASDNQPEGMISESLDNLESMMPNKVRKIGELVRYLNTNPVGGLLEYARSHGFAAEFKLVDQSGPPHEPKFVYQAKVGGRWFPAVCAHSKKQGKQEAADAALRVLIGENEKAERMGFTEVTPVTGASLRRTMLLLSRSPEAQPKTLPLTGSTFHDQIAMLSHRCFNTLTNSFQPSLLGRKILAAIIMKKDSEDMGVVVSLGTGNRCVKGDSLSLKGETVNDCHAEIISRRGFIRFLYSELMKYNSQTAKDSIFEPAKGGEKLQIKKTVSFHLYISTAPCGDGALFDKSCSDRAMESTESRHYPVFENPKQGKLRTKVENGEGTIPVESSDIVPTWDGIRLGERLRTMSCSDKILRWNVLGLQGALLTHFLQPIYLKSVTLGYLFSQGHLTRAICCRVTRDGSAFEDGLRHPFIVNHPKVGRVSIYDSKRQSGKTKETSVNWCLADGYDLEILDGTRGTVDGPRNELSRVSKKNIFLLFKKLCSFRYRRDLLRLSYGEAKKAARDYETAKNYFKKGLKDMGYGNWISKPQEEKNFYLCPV
Experiment: co-IP; MDA-MB-231 lysate (IP lysis buffer), 1 ug rabbit polyclonal anti-ADAR1 on protein A/G beads, overnight 4 C, four washes; normal rabbit IgG as control; blot with rabbit polyclonal anti-KYNU

B1: Kynureninase (KYNU) (enzyme, UniProt Q16719 1-465)
chain: MEPSSLELPADTVQRIAAELKCHPTDERVALHLDEEDKLRHFRECFYIPKIQDLPPVDLSLVNKDENAIYFLGNSLGLQPKMVKTYLEEELDKWAKIAAYGHEVGKRPWITGDESIVGLMKDIVGANEKEIALMNALTVNLHLLMLSFFKPTPKRYKILLEAKAFPSDHYAIESQLQLHGLNIEESMRMIKPREGEETLRIEDILEVIEKEGDSIAVILFSGVHFYTGQHFNIPAITKAGQAKGCYVGFDLAHAVGNVELYLHDWGVDFACWCSYKYLNAGAGGIAGAFIHEKHAHTIKPALVGWFGHELSTRFKMDNKLQLIPGVCGFRISNPPILLVCSLHASLEIFKQATMKALRKKSVLLTGYLEYLIKHNYGKDKAATKKPVVNIITPSHVEERGCQLTITFSVPNKDVFQELEKRGVVCDKRNPNGIRVAPVPLYNSFHDVYKFTNLLTSILDSAETKN
binding: binds
